This sample is rich in variants without activity.
Experiments:
biotinyl-Trp-oxazolone = test: self-aminoacylation, catalytic enhancement (BWO) (fold over background); higher = more active; k-Seq, kA / k0A0; sequences stand for … in GGGAAUGGAUCCACAUCUACGAAUUC…UUCACUGCAGACUUGACGAAGCUG
Procedure, shortened: (§1)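 Catalytic enhancement equals the median kA over the uncatalyzed rate, the latter read from the low-activity peak of a bimodal Gaussian fit. Values of kA came from fitting each sequence's fraction reacted to a pseudo-first-order model, with 1000 bootstraps. Reacted RNA was captured with streptavidin and quantified by triplicate qPCR and Illumina sequencing after 90 minutes at room temperature with 2–1250 μM biotinyl-aminoacyl-oxazolone and 0.43 μM mutagenized RNA pools bearing a 21-nt variable region.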

biotinyl-Leu-oxazolone = test: self-aminoacylation, catalytic enhancement (BLO) (fold over background); higher = more active; k-Seq, kA / k0A0; sequences stand for … in GGGAAUGGAUCCACAUCUACGAAUUC…UUCACUGCAGACUUGACGAAGCUG
Procedure, shortened: as §1

biotinyl-Val-oxazolone = test: self-aminoacylation, catalytic enhancement (BVO) (fold over background); higher = more active; k-Seq, kA / k0A0; sequences stand for … in GGGAAUGGAUCCACAUCUACGAAUUC…UUCACUGCAGACUUGACGAAGCUG
Procedure, shortened: as §1

biotinyl-Ile-oxazolone = test: self-aminoacylation, catalytic enhancement (BIO) (fold over background); higher = more active; k-Seq, kA / k0A0; sequences stand for … in GGGAAUGGAUCCACAUCUACGAAUUC…UUCACUGCAGACUUGACGAAGCUG
Procedure, shortened: as §1

biotinyl-Met-oxazolone = test: self-aminoacylation, catalytic enhancement (BMO) (fold over background); higher = more active; k-Seq, kA / k0A0; sequences stand for … in GGGAAUGGAUCCACAUCUACGAAUUC…UUCACUGCAGACUUGACGAAGCUG
Procedure, shortened: as §1

biotinyl-Phe-oxazolone = test: self-aminoacylation, catalytic enhancement (BFO) (fold over background); higher = more active; k-Seq, kA / k0A0; sequences stand for … in GGGAAUGGAUCCACAUCUACGAAUUC…UUCACUGCAGACUUGACGAAGCUG
Procedure, shortened: as §1

| Sequence | self-aminoacylation (biotinyl-Trp-oxazolone) | self-aminoacylation (biotinyl-Leu-oxazolone) | self-aminoacylation (biotinyl-Val-oxazolone) | self-aminoacylation (biotinyl-Ile-oxazolone) | self-aminoacylation (biotinyl-Met-oxazolone) | self-aminoacylation (biotinyl-Phe-oxazolone) |
| --- | --- | --- | --- | --- | --- | --- |
| AUUCAACUAGGUUAUCGGGUG [Fam2.2 aminoacylation ribozyme variant] | 3.46 | 3.61 | 2.45 | 2.21 | 3.29 | 22.1 |
| AUUCACAUAUGUCAUCGGGUG [Fam2.2 aminoacylation ribozyme variant] | 7.3 | 9.08 | 4.21 | 4.44 | 7.09 | 52.5 |
| AUUCACCAAAGUCAUCGGGUG [Fam2.2 aminoacylation ribozyme variant] | 13.6 | 19.5 | 8.23 | 9.57 | 15.3 | 110 |
| AUUCACCAAGGUCAUCGGGUU [Fam2.2 aminoacylation ribozyme variant] | 4.16 | 2.21 | 2.59 | 2.42 | 2.43 | 17.2 |
| AUUCACCAAGGUCAUGGGGUG [Fam2.2 aminoacylation ribozyme variant] | 8.64 | 12.7 | 5.88 | 6.16 | 9.1 | 77.3 |
| AUUCACCGAGGUAAUCGGGUG [Fam2.2 aminoacylation ribozyme variant] | 8.26 | 11.5 | 5.13 | 4.23 | 8.27 | 60.4 |
| AUUCACCGAGGUCAUCGGGAG [Fam2.2 aminoacylation ribozyme variant] | 1.74 | 1.66 | 1.61 | 1.44 | 2.23 | 4.74 |
| AUUCACCGGGGUCAUCGGGUG [Fam2.2 aminoacylation ribozyme variant] | 9.14 | 10.7 | 7.4 | 6.47 | 8.15 | 80.5 |
| AUUCACCUAGCUCAUCGGGUU [Fam2.2 aminoacylation ribozyme variant] | 0.984 | 1.59 | 1.74 | 1.46 | 1.29 | 0.848 |
| AUUCACCUAGGCCAGCGGGUG [Fam2.2 aminoacylation ribozyme variant] | 3.78 | 4.78 | 4.07 | 3.59 | 4.21 | 24.8 |
| AUUCACCUAGGUCAACGUGUG [Fam2.2 aminoacylation ribozyme variant] | 0.292 | 0.771 | 0.919 | 0.731 | 0.796 | 0.389 |
| AUUCACCUAGGUCAGCGGGUC [Fam2.2 aminoacylation ribozyme variant] | 0.583 | 1.33 | 1.1 | 1.17 | 0.931 | 0.768 |
| AUUCACCUAGGUCAUAGGGUC [Fam2.2 aminoacylation ribozyme variant] | 0.615 | 0.449 | 0.693 | 0.642 | 0.446 | 0.533 |
| AUUCACCUAGGUCAUAGGUUG [Fam2.2 aminoacylation ribozyme variant] | 0.441 | 0.9 | 0.77 | 0.63 | 0.846 | 0.595 |
| AUUCACCUAGGUCAUCAGGUA [Fam2.2 aminoacylation ribozyme variant] | 0.938 | 0.818 | 1.05 | 1.08 | 0.849 | 0.962 |
| AUUCACCUAGGUCAUCCGGUA [Fam2.2 aminoacylation ribozyme variant] | 1.87 | 2.3 | 2.3 | 2.36 | 2.17 | 6.52 |
| AUUCACCUAGGUCAUCGAAUG [Fam2.2 aminoacylation ribozyme variant] | 0.335 | 0.631 | 0.71 | 0.631 | 0.639 | 0.693 |
| AUUCACCUAGGUCAUCGCCUG [Fam2.2 aminoacylation ribozyme variant] | 2.11 | 3.01 | 2.44 | 2.01 | 1.87 | 8.71 |
| AUUCACCUAGGUCAUCGGAUC [Fam2.2 aminoacylation ribozyme variant] | 0.463 | 0.638 | 0.85 | 0.649 | 0.841 | 0.396 |
| AUUCACCUAGGUCAUCGGUGG [Fam2.2 aminoacylation ribozyme variant] | 1.81 | 1.85 | 1.52 | 1.5 | 1.97 | 4.26 |
| AUUCACCUAGGUCAUCUGGAG [Fam2.2 aminoacylation ribozyme variant] | 0.417 | 0.783 | 0.84 | 0.873 | 0.695 | 0.678 |
| AUUCACCUAGGUCAUCUGGUU [Fam2.2 aminoacylation ribozyme variant] | 0.629 | 1.15 | 1.03 | 1.13 | 1.04 | 0.914 |
| AUUCACCUAGGUCAUGGGUUG [Fam2.2 aminoacylation ribozyme variant] | 0.665 | 0.639 | 0.871 | 0.74 | 0.842 | 1.84 |
| AUUCACCUAGGUCGUCGGUUG [Fam2.2 aminoacylation ribozyme variant] | 0.63 | 1.33 | 1.24 | 1.13 | 1.2 | 4.19 |
| AUUCACCUAGGUGAUAGGGUG [Fam2.2 aminoacylation ribozyme variant] | 1.64 | 1.58 | 1.26 | 1.29 | 1.32 | 1.4 |
| AUUCACCUAGGUUAUCGUGUG [Fam2.2 aminoacylation ribozyme variant] | 0.804 | 1 | 0.981 | 0.775 | 1.07 | 2.6 |
